Assay results: publication PMC10191551, “Safety, Tolerability, and Pharmacokinetics of Oral Ferric Maltol in Children With Iron Deficiency: Phase 1 Study” (JPGN Reports, 2021)

Test: Phase 1 study: safety and tolerability (adverse events, vital signs, ECG, laboratory tests, compliance) of oral ferric maltol

Cc1occc(=O)c1[O-].Cc1occc(=O)c1[O-].Cc1occc(=O)c1[O-].[Fe+3] [Ferric maltol]
Mean study drug compliance (7.8 mg dose group): 98% | Mean study drug compliance (16.6 mg dose group): 86% | Mean study drug compliance (30 mg dose group): 98%
